PubChem BioAssay AID1259331 – Drosophila RNAi Screening Center – 2017
In all, the deposit lists about 3,100 reagents; shown is a random part of them. 126 of them (4.1%) were called active. 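Calls are per reagent; zinc was so toxic that few knock-downs lowered ATP further, so most hits raise ATP.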 Raw values vary from plate to plate and are shown uncorrected. Names joined by + are all predicted targets of the reagent. Not given: the amount of reagent.

- Test: 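Knock-downs that alter ATP level after a high zinc chloride dose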 (primary screen)
- System: Drosophila S2R+ cells
- Reagents: long dsRNA against Drosophila genes
- Duration: 5 days (4 days knock-down, then 1 day zinc)
- Conditions: zinc chloride at 15 mM final level for 1 day
- Measured: 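Total cellular ATP measured by luciferase luminescence as a viability proxy, turned into Z scores from three plate copies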
- Reading the numbers: mean Z score: higher = more ATP than other wells, better survival under zinc; ATP luminescence: higher = more ATP, more viable cells
- Hit rule: 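Hit when the absolute Z score is greater than 1.5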
- Meaning of the calls: active = hit, ATP up or down; inactive = not a hit

predicted target | PubChem SID | mean Z score | ATP luminescence, replicate 1 | ATP luminescence, replicate 2 | activity call
Tango9 | SID104193965 | 0.0962 | 44981 | 47429 | inactive
NijA | SID104190429 | -0.305 | 72140 | 53636 | inactive
CG4480 | SID104182542 | 0.375 | 55529 | 39970 | inactive
CG11537 | SID104187992 | 24.4 | 7.28e5 | 27953 | active
CG11537 | SID104217154 | 0.0184 | 64276 | 52898 | inactive
Gr93b | SID104201639 | -0.0377 | 48114 | 46331 | inactive
Gr93b | SID104217013 | -0.509 | 38308 | 47960 | inactive
PIG-Wa | SID104180520 | -0.518 | 37639 | 40149 | inactive
CG33233 | SID104188031 | -0.187 | 65588 | 66428 | inactive
CG33233 | SID104217160 | -0.4 | 53516 | 53979 | inactive
ZnT33D | SID104182383 | 0.257 | 54853 | 39885 | inactive
ZnT33D | SID104217112 | 0.0397 | 50419 | 54957 | inactive
Tret1-1 | SID104186838 | -0.0834 | 76376 | 71213 | inactive
Tret1-1 | SID104204245 | 0.468 | 69430 | 67783 | inactive
CG43373 | SID104189661 | 0.0132 | 74884 | 61884 | inactive
Sh | SID104199577 | 0.428 | 46657 | 52538 | inactive
Sh | SID104199847 | -0.222 | 28879 | 31673 | inactive
Sh | SID104204334 | 1.01 | 72140 | 68434 | inactive
Ctr1C | SID104194881 | 0.0254 | 63770 | 69230 | inactive
Ctr1C | SID104217031 | -0.417 | 40553 | 46708 | inactive
kek3 | SID104202189 | 0.0177 | 49778 | 47171 | inactive
kek3 | SID104203100 | -0.143 | 54270 | 55265 | inactive
bves | SID104200312 | 0.0813 | 43578 | 49435 | inactive
bves | SID104200347 | -0.0863 | 39820 | 43907 | inactive
PIG-Wb | SID104188318 | -0.155 | 67509 | 68538 | inactive
Shab | SID104187805 | 0.262 | 44171 | 47411 | inactive
Shab | SID104188491 | -0.529 | 25948 | 30233 | inactive
CG10804 | SID104197556 | -0.14 | 43999 | 42525 | inactive
CG10804 | SID104217115 | -0.0362 | 48217 | 51857 | inactive
ppk17 | SID104182044 | 0.943 | 63067 | 50686 | inactive
ppk17 | SID104217323 | -0.275 | 52435 | 61215 | inactive
bib | SID104183288 | 1.18 | 70767 | 75055 | inactive
Hacd1 | SID104182780 | -0.228 | 49555 | 56672 | inactive
Fili | SID104183699 | 0.151 | 43111 | 41736 | inactive
Fili | SID104183924 | 1.72 | 77680 | 48114 | active
Fili | SID104184237 | -0.0296 | 50155 | 43211 | inactive
CG6749 | SID104190496 | -0.228 | 74421 | 56139 | inactive
CG6749 | SID104217121 | 0.224 | 58883 | 49057 | inactive
alpha-Cat | SID104217085 | -0.108 | 49328 | 44617 | inactive
hoe1 | SID104180057 | 0.156 | 59466 | 57305 | inactive
hoe1 | SID104180145 | -0.963 | 37656 | 37845 | inactive
CG2076 | SID104199624 | -0.379 | 58591 | 60967 | inactive
CG2076 | SID104205591 | 0.384 | 66274 | 62090 | inactive
Ir11a | SID104199491 | 0.466 | 72054 | 75536 | inactive
Ir11a | SID104217055 | 0.116 | 54699 | 50159 | inactive
Or85f | SID104196561 | -0.0866 | 37673 | 59253 | inactive
Or85f | SID104217317 | 0.0712 | 55968 | 61158 | inactive
Chs2 | SID104191622 | -0.164 | 70767 | 58883 | inactive
Chs2 | SID104217000 | -0.0657 | 50721 | 55522 | inactive
CG14439 | SID104197723 | -0.721 | 53970 | 54236 | inactive
CG14439 | SID104217126 | -0.437 | 58557 | 52671 | inactive
CG4942 | SID104190254 | -0.395 | 29667 | 27148 | inactive
CG4942 | SID104217454 | -0.161 | 56019 | 57565 | inactive
BBIP1 + CG8135 | SID104196176 | 0.296 | 40382 | 60941 | inactive
BBIP1 + CG8135 | SID104204596 | 0.497 | 57382 | 67290 | inactive
MFS9 | SID104195352 | -0.356 | 40340 | 41599 | inactive
CadN | SID104183078 | -1.18 | 34433 | 36130 | inactive
CadN | SID104205912 | -0.502 | 52024 | 50103 | inactive
COX6AL2 + Ir75d | SID104189873 | 0.0951 | 78280 | 62261 | inactive
COX6AL2 + Ir75d | SID104217322 | -0.232 | 60632 | 56808 | inactive
Or1a | SID104198481 | -0.331 | 58369 | 62810 | inactive
Or1a | SID104217048 | -0.272 | 52967 | 43914 | inactive
Efr | SID104198114 | -0.755 | 52497 | 54593 | inactive
Efr | SID104205489 | 0.262 | 63359 | 63359 | inactive
CG45067 + CG45066 | SID104188206 | 0.183 | 80110 | 67543 | inactive
CG45067 + CG45066 | SID104205730 | 0.337 | 67372 | 62381 | inactive
Tsp66A + CG42660 + CG42661 | SID104190025 | -0.775 | 60941 | 52144 | inactive
PIG-F | SID104190861 | -0.168 | 72124 | 58351 | inactive
PIG-F | SID104205571 | 0.067 | 60512 | 58934 | inactive
ATP8A | SID104186435 | -0.772 | 29530 | 20600 | inactive
ATP8A | SID104186436 | -0.517 | 65451 | 61318 | inactive
CG3156 | SID104206483 | 0.0563 | 67835 | 42971 | inactive
CG3156 | SID104217449 | -0.0274 | 58420 | 65211 | inactive
GABPI | SID104180286 | -0.402 | 48081 | 53173 | inactive
GABPI | SID104206039 | -0.488 | 47076 | 43417 | inactive
ND-MWFE | SID104186156 | 0.442 | 46505 | 49023 | inactive
CG32079 | SID104202044 | 0.306 | 55385 | 46503 | inactive
CG32079 | SID104217001 | 2.46 | 86273 | 78589 | active
tw | SID104198329 | -0.607 | 40553 | 36928 | inactive
tw | SID104217371 | -0.175 | 50378 | 57339 | inactive
Or67c | SID104191034 | -0.489 | 64525 | 53636 | inactive
Or67c | SID104217337 | -0.0732 | 55110 | 55265 | inactive
CG15408 | SID104180215 | 0.0458 | 43279 | 49674 | inactive
CG15408 | SID104217290 | -0.31 | 52795 | 58317 | inactive
Esp | SID104196456 | -0.0428 | 37465 | 58525 | inactive
CG10226 | SID104189507 | -0.377 | 28827 | 29638 | inactive
bib + lncRNA:CR13130 | SID104203458 | 0.214 | 60683 | 58574 | inactive

8 entries from above, sorted by “ATP luminescence, replicate 2”, descending:
predicted target | PubChem SID | mean Z score | ATP luminescence, replicate 1 | ATP luminescence, replicate 2 | activity call
Ir11a | SID104199491 | 0.466 | 72054 | 75536 | inactive
CG2076 | SID104205591 | 0.384 | 66274 | 62090 | inactive
Or85f | SID104217317 | 0.0712 | 55968 | 61158 | inactive
CG2076 | SID104199624 | -0.379 | 58591 | 60967 | inactive
Or85f | SID104196561 | -0.0866 | 37673 | 59253 | inactive
Chs2 | SID104191622 | -0.164 | 70767 | 58883 | inactive
Chs2 | SID104217000 | -0.0657 | 50721 | 55522 | inactive
Ir11a | SID104217055 | 0.116 | 54699 | 50159 | inactive
